The text below walks through data of PMC4198210.

This data set addresses P-PhoP-His (phosphorylated PhoP) (Photorhabdus luminescens TT01) (UniProt Q7N3B2). Briefly: EMSA. The conditions noted are these: acetyl phosphate-phosphorylated PhoP, shift observed at 1.5 uM, poly(dI-dC) and BSA present; recombinant protein; residues 1-222; protein details: N-terminal His; label: 5'-32P; probe letters rebuilt from the primers and the genome.

For at least one entry, the source does not settle the construct or the ends of the probe.

“CGGGATCCCCTACCGCTACCACTGAAGCCACTAATGTTCTTTTCATTGAAAATCCCTAATATTATATAAAATTATAGAAAAGATTAATTACGAGGCGCGATTATTTATCAACAATCAATAGAAAACAACTCAATCTCGTTTATTGTTAATTTCCCGTTTAACTAAGAAACTAGTGACTGCTCCGCTGTATCATGGAAATCTTCCCACTGCAATCGACTATTGTTCGTACTTATTAGTTCTTTATTACTATTGGAATAAACGCAAAAAAATTCCCTGTTTTACCACAGGGAATTTTGTATAGAATAGATAGTGATAACTAATAAAGGAATAATCTTCAGATTACATGGCTAAACCTGGATACCCGCTTTGAATTCCG (double strand) [ail1 Pl promoter region (360 bp)]”: the binding result is listed as “binds”.
